Assay results as given in patent publication US8017585B2 (priority 2002, dated 2011).

What was measured:
[1] = general procedure: Fmoc solid-phase peptide synthesis; Fmoc-Rink amide resin; DIPCDI-HOBt; conditions: whole synthesis
[2] = general procedure: Fmoc solid-phase peptide synthesis; Fmoc-Rink amide resin (0.34 mmol/g); DIPCDI-HOBt; conditions: whole synthesis, scale 1 mmol, 6 TFA salt

Substance	isolated yield ([1]; scale 1 mmol, 6 TFA salt)	isolated mass [2]	isolated yield ([1]; 7 AcOH salt)
4F-benzoyl-Arg-Arg-Nal-Cys-Tyr-Cit-Lys-DLys-Pro-Tyr-Arg-Cit-Cys-Arg-NH2	19.4%	551.5 mg	–
H-Arg-Arg-Nal-Cys-Tyr-Arg-Lys-DGlu-Pro-Tyr-Arg-Cit-Cys-Arg-OH	–	–	21.3%
